Some entries share one result that the patent states for a list of compounds.
Tested on: diamondback moth (Plutella xylostella (L.))
Experiment: Test A: control of diamondback moth, foliar spray on mustard plant
Type: in vivo
Settings: sprayed at 50 ppm, assessed after 6 days, value is the feeding damage limit

Row | SMILES | control efficacy (40% or less feeding damage and/or 100% mortality) [%]
1 | CCC(=O)NCc1cc(NC(=O)C2C(c3ccc(C(F)(F)F)cc3)C2(Cl)Cl)ccc1Cl (stereo not shown) [Compound 191] | ≤ 40
2 | O=C(NCc1cc(NC(=O)C2C(c3cccc(C(F)(F)F)c3)C2(Cl)Cl)ccc1Cl)c1ccc(F)cc1 (stereo not shown) [Compound 203] | ≤ 40
3 | CC(C)C(=O)NCc1cc(NC(=O)C2C(c3cccc(C(F)(F)F)c3)C2(Cl)Cl)ccc1Cl (stereo not shown) [Compound 211] | ≤ 40
4 | CC(=O)NCc1cc(NC(=O)C2C(c3ccc4c(c3)OC(F)(F)O4)C2(Cl)Cl)ccc1Cl (stereo not shown) [Compound 17] | ≤ 40
5 | O=C(NCc1c(F)ccc(NC(=O)C2C(c3cc(Cl)cc(Cl)c3)C2(Cl)Cl)c1F)C1CC1 (stereo not shown) [Compound 33] | ≤ 40
6 | CCC(=O)NCc1cc(NC(=O)C2C(c3cccc(C(F)(F)F)c3)C2(Cl)Cl)ccc1Cl (stereo not shown) [Compound 208] | ≤ 40
7 | O=C(CC(F)(F)F)NCc1cc(NC(=O)C2C(c3cc(C(F)(F)F)cc(C(F)(F)F)c3)C2(Cl)Cl)ccc1Cl (stereo not shown) [Compound 212] | ≤ 40
8 | O=C(NCc1cc(NC(=O)C2C(c3cc(C(F)(F)F)cc(C(F)(F)F)c3)C2(Cl)Cl)ccc1Cl)C1CC1 (stereo not shown) [Compound 198] | ≤ 40
9 | O=C(NCc1cc(NC(=O)C2C(c3ccc4c(c3)OC(F)(F)O4)C2(Cl)Cl)ccc1Cl)C1CC1 (stereo not shown) [Compound 15] | ≤ 40
10 | O=C(NCc1cc(NC(=O)C2C(c3cc(Cl)cc(Cl)c3)C2(Cl)Cl)ccn1)c1ccc(F)cc1 (stereo not shown) [Compound 144] | ≤ 40
11 | O=C(CCl)NCc1cc(NC(=O)C2C(c3ccc(F)c(Cl)c3)C2(Cl)Cl)ccc1F (stereo not shown) [Compound 189] | ≤ 40
12 | O=C(Nc1ccc(F)c(CNC(=O)C2(C(F)(F)F)CC2)c1F)C1C(c2cc(Cl)cc(Cl)c2)C1(Cl)Cl (stereo not shown) [Compound 1] | ≤ 40
13 | CC(C)C(=O)NCc1cc(NC(=O)C2C(c3ccc(C(F)(F)F)cc3)C2(Cl)Cl)ccc1Cl (stereo not shown) [Compound 193] | ≤ 40
14 | Cc1ccc(NC(=O)C2C(c3ccc(F)c(Cl)c3)C2(Cl)Cl)cc1CNC(=O)C1CC1 (stereo not shown) [Compound 142] | ≤ 40
15 | CCC(=O)NCc1cc(NC(=O)C2C(c3ccc4c(c3)OC(F)(F)O4)C2(Cl)Cl)ccc1Cl (stereo not shown) [Compound 18] | ≤ 40
16 | O=C(CC1CC1)NCc1cc(NC(=O)C2C(c3ccc(C(F)(F)F)cc3)C2(Cl)Cl)ccc1Cl (stereo not shown) [Compound 200] | ≤ 40
17 | O=C(NCc1cc(NC(=O)C2C(c3cccc(C(F)(F)F)c3)C2(Cl)Cl)ccc1Cl)C1CC1 (stereo not shown) [Compound 209] | ≤ 40
18 | O=C(CC(F)(F)F)NCc1cc(NC(=O)C2C(c3ccc(Cl)cc3Cl)C2(Cl)Cl)ccc1Cl (stereo not shown) [Compound 214] | ≤ 40

Same assay, conditions: sprayed at 250 ppm, assessed after 6 days, value is the feeding damage limit

Row | SMILES | control efficacy (40% or less feeding damage and/or 100% mortality) [%]
19 | CCC(=O)NCc1cc(NC(=O)C2C(c3ccc(C(F)(F)F)cc3)C2(Cl)Cl)ccc1Cl (stereo not shown) [Compound 191] | ≤ 40
20 | CC(=O)NCc1cc(NC(=O)C2C(c3ccc4c(c3)OC(F)(F)O4)C2(Cl)Cl)ccc1Cl (stereo not shown) [Compound 17] | ≤ 40
21 | O=C(NCc1c(F)ccc(NC(=O)C2C(c3cc(Cl)cc(Cl)c3)C2(Cl)Cl)c1F)C1CC1 (stereo not shown) [Compound 33] | ≤ 40
22 | O=C(NCc1cc(NC(=O)C2C(c3ccc4c(c3)OC(F)(F)O4)C2(Cl)Cl)ccc1Cl)C1CC1 (stereo not shown) [Compound 15] | ≤ 40
23 | O=C(NCc1cc(NC(=O)C2C(c3cc(Cl)cc(Cl)c3)C2(Cl)Cl)ccn1)c1ccc(F)cc1 (stereo not shown) [Compound 144] | ≤ 40
24 | O=C(CCl)NCc1cc(NC(=O)C2C(c3ccc(F)c(Cl)c3)C2(Cl)Cl)ccc1F (stereo not shown) [Compound 189] | ≤ 40
25 | O=C(Nc1ccc(F)c(CNC(=O)C2(C(F)(F)F)CC2)c1F)C1C(c2cc(Cl)cc(Cl)c2)C1(Cl)Cl (stereo not shown) [Compound 1] | ≤ 40
26 | CC(C)C(=O)NCc1cc(NC(=O)C2C(c3ccc(C(F)(F)F)cc3)C2(Cl)Cl)ccc1Cl (stereo not shown) [Compound 193] | ≤ 40
27 | Cc1ccc(NC(=O)C2C(c3ccc(F)c(Cl)c3)C2(Cl)Cl)cc1CNC(=O)C1CC1 (stereo not shown) [Compound 142] | ≤ 40
28 | CCC(=O)NCc1cc(NC(=O)C2C(c3ccc4c(c3)OC(F)(F)O4)C2(Cl)Cl)ccc1Cl (stereo not shown) [Compound 18] | ≤ 40
29 | O=C(CC1CC1)NCc1cc(NC(=O)C2C(c3ccc(C(F)(F)F)cc3)C2(Cl)Cl)ccc1Cl (stereo not shown) [Compound 200] | ≤ 40

Tested on: fall armyworm (Spodoptera frugiperda (J. E. Smith))
Experiment: Test B: control of fall armyworm, foliar spray on corn (maize) plant
Type: in vivo
Settings: sprayed at 50 ppm, assessed after 6 days, value is the feeding damage limit

Row | SMILES | control efficacy (40% or less feeding damage and/or 100% mortality) [%]
30 | CCC(=O)NCc1cc(NC(=O)C2C(c3ccc(C(F)(F)F)cc3)C2(Cl)Cl)ccc1Cl (stereo not shown) [Compound 191] | ≤ 40
31 | O=C(NCc1cc(NC(=O)C2C(c3cccc(C(F)(F)F)c3)C2(Cl)Cl)ccc1Cl)c1ccc(F)cc1 (stereo not shown) [Compound 203] | ≤ 40
32 | CC(C)C(=O)NCc1cc(NC(=O)C2C(c3cccc(C(F)(F)F)c3)C2(Cl)Cl)ccc1Cl (stereo not shown) [Compound 211] | ≤ 40
33 | O=C(NCc1c(F)ccc(NC(=O)C2C(c3cc(Cl)cc(Cl)c3)C2(Cl)Cl)c1F)C1CC1 (stereo not shown) [Compound 33] | ≤ 40
34 | CCC(=O)NCc1cc(NC(=O)C2C(c3cccc(C(F)(F)F)c3)C2(Cl)Cl)ccc1Cl (stereo not shown) [Compound 208] | ≤ 40
35 | O=C(CC(F)(F)F)NCc1cc(NC(=O)C2C(c3cc(C(F)(F)F)cc(C(F)(F)F)c3)C2(Cl)Cl)ccc1Cl (stereo not shown) [Compound 212] | ≤ 40
36 | O=C(NCc1cc(NC(=O)C2C(c3cc(C(F)(F)F)cc(C(F)(F)F)c3)C2(Cl)Cl)ccc1Cl)C1CC1 (stereo not shown) [Compound 198] | ≤ 40
37 | O=C(NCc1cc(NC(=O)C2C(c3ccc4c(c3)OC(F)(F)O4)C2(Cl)Cl)ccc1Cl)C1CC1 (stereo not shown) [Compound 15] | ≤ 40
38 | CC(C)C(=O)NCc1cc(NC(=O)C2C(c3ccc(C(F)(F)F)cc3)C2(Cl)Cl)ccc1Cl (stereo not shown) [Compound 193] | ≤ 40
39 | O=C(CC1CC1)NCc1cc(NC(=O)C2C(c3ccc(C(F)(F)F)cc3)C2(Cl)Cl)ccc1Cl (stereo not shown) [Compound 200] | ≤ 40
40 | O=C(NCc1cc(NC(=O)C2C(c3cccc(C(F)(F)F)c3)C2(Cl)Cl)ccc1Cl)C1CC1 (stereo not shown) [Compound 209] | ≤ 40
41 | O=C(CC(F)(F)F)NCc1cc(NC(=O)C2C(c3ccc(Cl)cc3Cl)C2(Cl)Cl)ccc1Cl (stereo not shown) [Compound 214] | ≤ 40

Same assay, conditions: sprayed at 250 ppm, assessed after 6 days, value is the feeding damage limit

Row | SMILES | control efficacy (40% or less feeding damage and/or 100% mortality) [%]
42 | CCC(=O)NCc1cc(NC(=O)C2C(c3ccc(C(F)(F)F)cc3)C2(Cl)Cl)ccc1Cl (stereo not shown) [Compound 191] | ≤ 40
43 | CC(=O)NCc1cc(NC(=O)C2C(c3ccc4c(c3)OC(F)(F)O4)C2(Cl)Cl)ccc1Cl (stereo not shown) [Compound 17] | ≤ 40
44 | O=C(NCc1c(F)ccc(NC(=O)C2C(c3cc(Cl)cc(Cl)c3)C2(Cl)Cl)c1F)C1CC1 (stereo not shown) [Compound 33] | ≤ 40
45 | O=C(NCc1cc(NC(=O)C2C(c3ccc4c(c3)OC(F)(F)O4)C2(Cl)Cl)ccc1Cl)C1CC1 (stereo not shown) [Compound 15] | ≤ 40
46 | O=C(NCc1cc(NC(=O)C2C(c3cc(Cl)cc(Cl)c3)C2(Cl)Cl)ccn1)c1ccc(F)cc1 (stereo not shown) [Compound 144] | ≤ 40
47 | O=C(CCl)NCc1cc(NC(=O)C2C(c3ccc(F)c(Cl)c3)C2(Cl)Cl)ccc1F (stereo not shown) [Compound 189] | ≤ 40
48 | O=C(Nc1ccc(F)c(CNC(=O)C2(C(F)(F)F)CC2)c1F)C1C(c2cc(Cl)cc(Cl)c2)C1(Cl)Cl (stereo not shown) [Compound 1] | ≤ 40
49 | CC(C)C(=O)NCc1cc(NC(=O)C2C(c3ccc(C(F)(F)F)cc3)C2(Cl)Cl)ccc1Cl (stereo not shown) [Compound 193] | ≤ 40
50 | Cc1ccc(NC(=O)C2C(c3ccc(F)c(Cl)c3)C2(Cl)Cl)cc1CNC(=O)C1CC1 (stereo not shown) [Compound 142] | ≤ 40
51 | CCC(=O)NCc1cc(NC(=O)C2C(c3ccc4c(c3)OC(F)(F)O4)C2(Cl)Cl)ccc1Cl (stereo not shown) [Compound 18] | ≤ 40
52 | O=C(CC1CC1)NCc1cc(NC(=O)C2C(c3ccc(C(F)(F)F)cc3)C2(Cl)Cl)ccc1Cl (stereo not shown) [Compound 200] | ≤ 40
